# Some entries repeat one wording, which the source may state once for all of them.
# Columns and labels:
# [1] = Evaluation of appearance of impact-resistant polystyrene molded plate; design: key: ◯: no agglomerates or good hue and appearance; Δ: a small number of agglomerates or moderate hue and appearance; X: a large number of agglomerates or bad hue and appearance; details: HIPS molded plate
# [2] = Evaluation of appearance of coated sheet cloth; design: key: ◯: no agglomerates or good hue and appearance; Δ: a small number of agglomerates or moderate hue and appearance; X: a large number of agglomerates or bad hue and appearance; details: coated polyester car sheet cloth
# [3] = Evaluation of appearance of epoxy resin varnish dried on glass sheet; design: key: ◯: no agglomerates or good hue and appearance; Δ: a small number of agglomerates or moderate hue and appearance; X: a large number of agglomerates or bad hue and appearance; details: 30 parts by weight
# [4] = Flame retardancy UL-94 vertical test, epoxy resin laminate sheet; details: epoxy laminate sheet 1.6 mm, 30 parts by weight per 100 parts epoxy resin
# [5] = Flame retardancy UL-94 vertical test, impact-resistant polystyrene; details: UL-94, 1.6 mm
# [6] = 10 parts by weight per 100 parts HIPS
SMILES,Evaluation of appearance ([1]; 10 parts by weight),Evaluation of appearance [2],Evaluation of appearance [3],Flame retardancy [4],"Flame retardancy evaluation [5, 6]",Evaluation of appearance ([1]; 5 parts by weight),Flame retardancy evaluation ([5]; 5 parts by weight per 100 parts HIPS)
"O=P1(Cc2ccccc2)OCC2(CO1)COP(=O)(Cc1ccccc1)OC2 (single isomer, unassigned) [FR-1, 2,4,8,10-tetraoxa-3,9-diphosphaspiro[5.5]undecane,3,9-dibenzyl-3,9-dioxide]",◯,◯,◯,"V-0 (When all the test samples self-extinguish within 10 seconds after the flame is removed, the total of ten burn times is no longer than 50 seconds, and samples do not drip flaming particles or these particles do not cause the ignition of cotton, flame retardancy is rated V-0)","V-2 (when all the test samples self-extinguish within 30 seconds after the flame is removed, the total of 10 burn times is no longer than 250 seconds, and the test samples drips flaming particles which cause the ignition of cotton, flame retardancy is rated V-2)",,
"O=P1(Cc2ccccc2)OCC2(CO1)COP(=O)(Cc1ccccc1)OC2 (single isomer, unassigned) [FR-5, 2,4,8,10-tetraoxa-3,9-diphosphaspiro[5.5]undecane, 3,9-dibenzyl-3,9-dioxide]",Δ,X,X,"V-0 (When all the test samples self-extinguish within 10 seconds after the flame is removed, the total of ten burn times is no longer than 50 seconds, and samples do not drip flaming particles or these particles do not cause the ignition of cotton, flame retardancy is rated V-0)","V-2 (when all the test samples self-extinguish within 30 seconds after the flame is removed, the total of 10 burn times is no longer than 250 seconds, and the test samples drips flaming particles which cause the ignition of cotton, flame retardancy is rated V-2)",,
"O=P1(Cc2ccccc2)OCC2(CO1)COP(=O)(Cc1ccccc1)OC2 (single isomer, unassigned) [FR-6, 2,4,8,10-tetraoxa-3,9-diphosphaspiro[5.5]undecane,3,9-dibenzyl-3,9-dioxide]",X,Δ,Δ,"V-1 (When all the test samples self-extinguish within 30 seconds after the flame is removed, the total of 10 burn times is no longer than 250 seconds, and the samples do not drip flaming particles or these particles do not cause the ignition of cotton, flame retardancy is rated V-1)","V-2 (when all the test samples self-extinguish within 30 seconds after the flame is removed, the total of 10 burn times is no longer than 250 seconds, and the test samples drips flaming particles which cause the ignition of cotton, flame retardancy is rated V-2)",,
"CC(c1ccccc1)P1(=O)OCC2(CO1)COP(=O)(C(C)c1ccccc1)OC2 (centres unmarked) [FR-2, 2,4,8,10-tetraoxa-3,9-diphosphaspiro[5.5]undecane,3,9-diα-methylbenzyl-3,9-dioxide]",◯,◯,◯,"V-0 (When all the test samples self-extinguish within 10 seconds after the flame is removed, the total of ten burn times is no longer than 50 seconds, and samples do not drip flaming particles or these particles do not cause the ignition of cotton, flame retardancy is rated V-0)","V-2 (when all the test samples self-extinguish within 30 seconds after the flame is removed, the total of 10 burn times is no longer than 250 seconds, and the test samples drips flaming particles which cause the ignition of cotton, flame retardancy is rated V-2)",,
"O=P1(CCc2ccccc2)OCC2(CO1)COP(=O)(CCc1ccccc1)OC2 (centres unmarked) [FR-3, 2,4,8,10-tetraoxa-3,9-diphosphaspiro[5.5]undecane,3,9-di(2-phenylethyl)-3,9-dioxide]",◯,◯,◯,"V-0 (When all the test samples self-extinguish within 10 seconds after the flame is removed, the total of ten burn times is no longer than 50 seconds, and samples do not drip flaming particles or these particles do not cause the ignition of cotton, flame retardancy is rated V-0)","V-2 (when all the test samples self-extinguish within 30 seconds after the flame is removed, the total of 10 burn times is no longer than 250 seconds, and the test samples drips flaming particles which cause the ignition of cotton, flame retardancy is rated V-2)",,
"O=P1(C(c2ccccc2)c2ccccc2)OCC2(CO1)COP(=O)(C(c1ccccc1)c1ccccc1)OC2 (centres unmarked) [FR-4, 2,4,8,10-tetraoxa-3,9-diphosphaspiro[5.5]undecane, 3,9-bis(diphenylmethyl)-3,9-dioxide]",◯,◯,◯,"V-0 (When all the test samples self-extinguish within 10 seconds after the flame is removed, the total of ten burn times is no longer than 50 seconds, and samples do not drip flaming particles or these particles do not cause the ignition of cotton, flame retardancy is rated V-0)","V-2 (when all the test samples self-extinguish within 30 seconds after the flame is removed, the total of 10 burn times is no longer than 250 seconds, and the test samples drips flaming particles which cause the ignition of cotton, flame retardancy is rated V-2)",,
Cc1cccc(C)c1OP(=O)(Oc1cccc(OP(=O)(Oc2c(C)cccc2C)Oc2c(C)cccc2C)c1)Oc1c(C)cccc1C [PX-200],,,,,,X,Not V

# From US10919923B2, “Organic phosphorus-based compound, and flame retardant and flame-retardant product comprising the same” (TEIJIN LIMITED, priority 2016, dated 2021)
